In patent US5556846A, “17-heterocyclyl-14beta-5alpha-androstane, androstene and androstadiene derivatives active on the cardiovascular system, and pharmaceutical compositions containing same” (Sigma-Tau Industrie Farmaceutiche Riunite S.p.A., priority 1992, dated 1996):
At least one read-out could not be matched to a standard name with certainty.

Experiments:
Na^+,K^+ -ATPase [1] = target: T1, Na^+,K^+ -ATPase (Homo sapiens, UniProt P05023); experiment: inhibition of the activity of the purified Na+,K+-ATPase measured as % of hydrolysis of 32P-ATP; format: biochemical; details: 32P-ATP hydrolysis
T1 construct: Na^+,K^+ -ATPase receptor purified according to Jorghensen; from tissue
Description: (§1) To test the affinity for the receptor site of the Na^+,K^+ -ATPase and the inhibitory activity on the enzyme, the following tests were used: a) displacement of the specific ^3 H-ouabain binding from the Na^+,K^+ -ATPase receptor purified according to Jorghensen (Jorghensen P., BBA, 1974, 356, 36) and Erdmann (Erdmann E. et at., Arzneim.Forsh., 1984, 34, 1314): b) inhibition of the activity of the purified Na^+,K^+ -ATPase measured as % of hydrolysis of ^32 P-ATP in presence and in absence of the tested compound (Doucet A. et at., Am.

Na^+,K^+ -ATPase [2] = target: T1, Na^+,K^+ -ATPase; experiment: displacement of the specific 3H-ouabain binding from the purified Na+,K+-ATPase receptor; details: 3H-ouabain displacement
Description: as §1

SMILES | Inhibitory Activity log IC50 (Na^+,K^+ -ATPase [1]) | Binding ^3 H-Ouab. Displacement log IC50 (Na^+,K^+ -ATPase [2])
C[C@]12CC[C@H](O)C[C@@H]1CC[C@@H]1[C@@H]2CC[C@]2(C)[C@@](O)(c3ccc[n+]([O-])c3)CC[C@]12O [Comp. I - bm, 17β-(3-Pyridyl-N-oxide)-5α-androstane-3β,14β,17α-triol] | 4.0 | –
C[C@]12CC[C@H]3[C@@H](CCC4=C[C@@H](OCCOCCN5CCCC5)CC[C@@]43C)[C@@]1(O)CC[C@]2(O)c1ccoc1 [Comp. I - bs, 3β-(2-(2-(1-Pyrrolidinyl)ethoxy)ethoxy)-17β-(3-furyl)androst-4-ene-14β,17α-diol] | – | 5.4
Cc1ncc([C@@]2(O)CC[C@]3(O)[C@@H]4CC=C5C[C@@H](O)CC[C@]5(C)[C@H]4CC[C@]23C)n1C [Comp. I - bo, 17β-(1,2-Dimethyl-5-imidazolyl)androst-5-ene-3β,14β,17α-triol] | 4.0 | –
C[C@]12CC[C@H]3[C@@H](CCC4=C[C@@H](OCCCN)CC[C@@]43C)[C@@]1(O)CC[C@]2(OCCCN)c1ccoc1 [Comp. I - al, 3β,17α-Bis(3-aminopropoxy)-17α-(3-furyl)androst-4-ene-14β,17α-diol] | 4.0 | –
